The values that follow come from publication PMC8063000.

Chains of the proteins cited; added tags and fusions are not shown. Lines headed by an entry give the natural chain unless they say otherwise; changes in a name come on top. A line that says so, or that is headed by a name, gives the form on record, which may keep a tag or linker.
UXT-V1-M13G-HA (Q9UBK9-2, form named): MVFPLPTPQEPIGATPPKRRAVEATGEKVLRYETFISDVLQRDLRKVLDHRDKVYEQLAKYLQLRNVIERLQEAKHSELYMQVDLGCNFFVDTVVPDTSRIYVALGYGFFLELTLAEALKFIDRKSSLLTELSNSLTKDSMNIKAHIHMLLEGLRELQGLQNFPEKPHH

Assay [1] has as its target T1, 2xFLAG-Fbxo7 (wild type) (human) (UniProt Q9Y3I1).
T1 sequence: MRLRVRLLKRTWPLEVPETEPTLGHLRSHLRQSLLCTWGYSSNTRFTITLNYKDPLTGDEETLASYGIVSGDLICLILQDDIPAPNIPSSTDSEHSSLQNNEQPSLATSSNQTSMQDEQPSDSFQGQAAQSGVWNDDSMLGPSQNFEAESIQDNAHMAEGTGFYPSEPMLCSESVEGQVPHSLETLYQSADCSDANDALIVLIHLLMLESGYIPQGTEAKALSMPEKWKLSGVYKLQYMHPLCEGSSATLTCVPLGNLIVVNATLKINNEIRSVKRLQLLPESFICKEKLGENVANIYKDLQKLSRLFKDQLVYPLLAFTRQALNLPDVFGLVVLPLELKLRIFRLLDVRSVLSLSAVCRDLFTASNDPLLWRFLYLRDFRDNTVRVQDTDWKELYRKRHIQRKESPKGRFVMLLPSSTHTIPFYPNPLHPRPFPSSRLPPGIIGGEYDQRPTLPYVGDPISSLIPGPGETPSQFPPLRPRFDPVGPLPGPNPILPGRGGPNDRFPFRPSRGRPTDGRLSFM
Put plainly: co-IP; HEK293T transfected with FLAG-Fbxo7 and UXT-V1-M13G or UXT-V2; NP-40 lysis buffer; extracts immunoprecipitated (antibody not told), SDS-PAGE and immunoblot. (In general: In western blotting, separated proteins are transferred to a membrane and probed.)

In assay [2] the target is T1, 2xFLAG-Fbxo7 (wild type) (human). The experiment in a line: co-IP; HEK293T co-transfected with 2xFLAG-Fbxo7 plasmids and UXT-V2-HA; NP-40 lysis buffer; immunoprecipitated with agarose anti-FLAG; immunoblot of input and eluted proteins.
In assay [3] the target is T2, 2xFLAG-Fbxo7-ΔF-box (human) (UniProt Q9Y3I1).
T2 sequence: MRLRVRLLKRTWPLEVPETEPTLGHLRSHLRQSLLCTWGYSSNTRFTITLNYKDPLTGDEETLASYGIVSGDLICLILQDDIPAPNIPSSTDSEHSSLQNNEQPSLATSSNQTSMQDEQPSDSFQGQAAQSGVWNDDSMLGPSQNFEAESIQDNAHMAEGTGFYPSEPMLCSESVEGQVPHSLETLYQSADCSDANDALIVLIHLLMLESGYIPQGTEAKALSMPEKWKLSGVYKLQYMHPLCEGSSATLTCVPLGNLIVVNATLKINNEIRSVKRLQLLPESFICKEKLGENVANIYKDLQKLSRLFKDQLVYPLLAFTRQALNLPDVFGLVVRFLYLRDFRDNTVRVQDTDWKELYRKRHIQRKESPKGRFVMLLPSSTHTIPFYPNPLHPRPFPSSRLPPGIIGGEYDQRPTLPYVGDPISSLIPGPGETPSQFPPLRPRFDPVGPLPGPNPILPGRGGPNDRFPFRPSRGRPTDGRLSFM
The assay is described as above.

These are yes or no findings as the source states them, for the method shown. Binding seen in cells or lysates may run through a third protein. Some entries that bind do so weakly or less than the wild type. Where a sequence is shown, tags or fusion partners need not be part of it.

Turning to “UXT-V2-HA (Ubiquitously eXpressed Transcript isoform 2) (from UniProt Q9UBK9-1 1-157)”, the binding entry in assay [1], in assay [2] and in assay [3] was “binds” in each case.
“UXT-V1-M13G-HA (from UniProt Q9UBK9-2 1-169)”: in assay [1], the binding entry is given as “binds”.
